Results are given in words; binding and its absence hold for the method and conditions named.
Key:
[1] = target: PA0285_(317-760), truncated PA0285 variant encompassing the GGDEF and EAL domains (Pseudomonas aeruginosa PAO1) (UniProt Q9I6K5); test: SEC; analytical SEC, Superdex 200 10/30 GL, 100 μl of 100 μM protein, 20 mM Hepes-Na pH 7.5, 150 mM NaCl, 4 °C, calibrated with ferritin, aldolase, conalbumin, ovalbumin, RNase A; both purified
[2] = target: PA0285_(353-508), the isolated GGDEF domain (Pseudomonas aeruginosa PAO1) (UniProt Q9I6K5); test: as above
[3] = target: PA0285_(194-760), construct encompassing the second PAS domain that directly precedes the GGDEF/EAL tandem (Pseudomonas aeruginosa PAO1) (UniProt Q9I6K5); test: SEC-MALS; MALS and differential refractive index detectors after the Superdex 200 10/30 GL column, 100 μl of 100 μM protein, 20 mM Hepes-Na pH 7.5, 150 mM NaCl, 4 °C, Debye fitting; both purified

B1: PA0285_(317-760), truncated PA0285 variant encompassing the GGDEF and EAL domains (domain or fragment, UniProt Q9I6K5 317-760)
chain: LSSIKRSENELDFLAHHDSLTGLPNRVLLRERIEQALENGKDRTVAGALLLIDLDHFKHINDSLGHTTGDMLLKEVSKRLQHQLDERCLLSRLGGDEFAILVENDDPEAVARLSQRILDGFNAPFDIHCQPIYISASLGVSLYPEDASDVDHLMQHADAALFQAKDSGRNAYAFYTRVLTARARAHVQVESALRHALEHDELRVHYQPVHDLASGRIVGVESLVRWQHPERGLVPPGEFVPVAEECGLIAALDNWVLKRACRQMREWQQRGVELEFVAVNVSSRLFNRGGLEERIANALEESGLEPRYLELEVTESAVMEDFEQSLNLLCRLRILGVNLAIDDFGTGYSSLMRLKRLPVHKLKIDQGFVAGLPGAVDDAAIARAIVALAQSMGLRVVAEGIEHQDQALFLREHGCDFGQGYWYGRPQPAEALRFDLPPVALPED
For B1, which binding [1] is on record?
Its binding is “no binding (tested: 100 μM applied)”.

B2: PA0285_(353-508), the isolated GGDEF domain (domain or fragment, UniProt Q9I6K5 353-508)
chain: LENGKDRTVAGALLLIDLDHFKHINDSLGHTTGDMLLKEVSKRLQHQLDERCLLSRLGGDEFAILVENDDPEAVARLSQRILDGFNAPFDIHCQPIYISASLGVSLYPEDASDVDHLMQHADAALFQAKDSGRNAYAFYTRVLTARARAHVQVESA
How did the binding [2] turn out when B2 was run?
The binding was “no binding (tested: 100 μM applied)”.

B3: PA0285_(194-760), construct encompassing the second PAS domain that directly precedes the GGDEF/EAL tandem (domain or fragment, UniProt Q9I6K5 194-760)
chain: DITLQRLKEDHLRQAAAVFDSTREGVLVTDAQAVIVHVNPSFERITGYRSEDVLGKTPAILRSGRQDQAFYQRLWLALREQDVWSGEIWNRRKSGEIYPQWLHIRAVRNDQGQLTHYVGVFSDLSSIKRSENELDFLAHHDSLTGLPNRVLLRERIEQALENGKDRTVAGALLLIDLDHFKHINDSLGHTTGDMLLKEVSKRLQHQLDERCLLSRLGGDEFAILVENDDPEAVARLSQRILDGFNAPFDIHCQPIYISASLGVSLYPEDASDVDHLMQHADAALFQAKDSGRNAYAFYTRVLTARARAHVQVESALRHALEHDELRVHYQPVHDLASGRIVGVESLVRWQHPERGLVPPGEFVPVAEECGLIAALDNWVLKRACRQMREWQQRGVELEFVAVNVSSRLFNRGGLEERIANALEESGLEPRYLELEVTESAVMEDFEQSLNLLCRLRILGVNLAIDDFGTGYSSLMRLKRLPVHKLKIDQGFVAGLPGAVDDAAIARAIVALAQSMGLRVVAEGIEHQDQALFLREHGCDFGQGYWYGRPQPAEALRFDLPPVALPED
How did the binding [3] turn out when B3 was run?
Its binding is “no binding (tested: 100 μM applied)”.
